Data as given in PubChem BioAssay AID504793 (Drosophila RNAi Screening Center, 2011).
Assay: 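Genes required for cells to halt at G2/M after double-strand DNA breaks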 (primary screen). Cell system: Drosophila S2R+ cells. Reagents: long dsRNA against Drosophila genes, about 0.25 µg dsRNA per well. Time to read-out: 4 days of dsRNA, then 4 hours of drug before read-out. Treatment: doxorubicin 0.5 µM for 4 hours to cause double-strand breaks, in cells also given a low, harmless dose of dsRNA against nbs to sensitise the assay. Detection: 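Mitotic index as the number of phospho-histone H3-positive cells in each well following doxorubicin, given as raw counts without normalisation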. Direction: mitotic cells: higher = more cells in mitosis, weaker G2 arrest. Active means: 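Genes are called active only when high mitotic counts were reproduced with independent dsRNAs and mitosis was checked for delay without damage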. Calls: active = confirmed in follow-up tests; inactive = not confirmed.
The screen tested about 23,000 reagents; this is a random part of those that have a named target and a result. Of all reagents, 62 (0.27%) are marked active. 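Calls come from follow-up tests whose scores are not deposited, so confirmed genes may have low counts here; counts are not normalised per plate.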 Raw values are not corrected between plates. Reagents against one gene are numbered here. Names joined by + are all predicted targets of the reagent. Reagent sequences are not shown.

gene | dsRNA no. | mitotic cells, replicate 1 | call
Obp56d | 1 | 4 | inactive
Cyfip | 1 | 4 | inactive
CG10164 | 1 | 13 | inactive
Dg | 1 | 6 | inactive
ftz-f1 | 1 | 2 | inactive
ftz-f1 | 2 | 6 | inactive
CG34140 + Mkp | 1 | 6 | inactive
CCAP | 1 | 11 | inactive
CG5235 | 1 | 4 | inactive
Prp31 | 1 | 5 | inactive
cold | 1 | 5 | inactive
Gadd45 | 1 | 1 | inactive
Atg10 + CG18853 + CG12822 | 1 | 16 | inactive
Spc25 | 1 | 11 | inactive
PXo | 1 | 8 | inactive
CG1647 | 1 | 2 | inactive
CG8500 | 1 | 3 | inactive
CG8500 | 2 | 10 | inactive
Pura | 1 | 6 | inactive
Pura | 2 | 6 | inactive
Pura | 3 | 6 | inactive
Pura | 4 | 3 | inactive
Pura | 5 | 4 | inactive
Pura | 6 | 8 | inactive
CG11085 | 1 | 8 | inactive
CG11085 | 2 | 8 | inactive
CG11085 | 3 | 5 | inactive
CG13312 | 1 | 5 | inactive
CG13312 | 2 | 9 | inactive
mael | 1 | 6 | inactive
PIG-B | 1 | 14 | inactive
PIG-B | 2 | 6 | inactive
pita | 1 | 7 | inactive
pita | 2 | 11 | inactive
PIG-Wa | 1 | 7 | inactive
Hip14 | 1 | 15 | inactive
Drsl6 | 1 | 3 | inactive
CG13807 | 1 | 10 | inactive
CG13807 | 2 | 5 | inactive
CG11586 | 1 | 8 | inactive
CG11586 | 2 | 7 | inactive
Lam | 1 | 8 | inactive
Lam | 2 | 3 | inactive
mav | 1 | 10 | inactive
fy | 1 | 6 | inactive
fy | 2 | 2 | inactive
CG2187 | 1 | 12 | inactive
CG2187 | 2 | 7 | inactive
hgo | 1 | 6 | inactive
Wnt5 | 1 | 17 | inactive
Wnt5 | 2 | 4 | inactive

The list goes on; the last 9 above are carried over.
gene | dsRNA no. | mitotic cells, replicate 1 | call
Lam | 2 | 3 | inactive
mav | 1 | 10 | inactive
fy | 1 | 6 | inactive
fy | 2 | 2 | inactive
CG2187 | 1 | 12 | inactive
CG2187 | 2 | 7 | inactive
hgo | 1 | 6 | inactive
Wnt5 | 1 | 17 | inactive
Wnt5 | 2 | 4 | inactive
CG14820 | 1 | 3 | inactive
CG32795 | 1 | 13 | inactive
CG32795 | 2 | 6 | inactive
Gart | 1 | 3 | inactive
Gart | 2 | 5 | inactive
CG6324 | 1 | 4 | inactive
l(3)07882 | 1 | 4 | inactive
dpr11 | 1 | 6 | inactive
dpr11 | 2 | 6 | inactive
dpr11 | 3 | 8 | inactive
CG3939 | 1 | 15 | inactive
CG7365 | 1 | 11 | inactive
CG7365 | 2 | 2 | inactive
CG3760 | 1 | 10 | inactive
STUB1 | 1 | 7 | inactive
CG3611 | 1 | 8 | inactive
CG1492 | 1 | 6 | inactive
betaTry | 1 | 16 | inactive
betaTry | 2 | 8 | inactive
betaTry | 3 | 2 | inactive
Brd7-9 | 1 | 5 | inactive
Brd7-9 | 2 | 6 | inactive
CG7798 | 1 | 10 | inactive
Rap1 | 1 | 6 | inactive
Rap1 | 2 | 4 | inactive
CG18213 | 1 | 6 | inactive
CG15185 | 1 | 6 | inactive
CG12118 | 1 | 11 | inactive
CG4763 | 1 | 9 | inactive
CG4763 | 2 | 14 | inactive
Pomp | 1 | 105 | inactive
Pomp | 2 | 6 | inactive
AGO3 | 1 | 12 | inactive
Klp67A + CG34456 | 1 | 8 | inactive
CG30033 | 1 | 9 | inactive
Pld3 | 1 | 8 | inactive
CG11030 | 1 | 3 | inactive
CG11030 | 2 | 4 | inactive
Tmtc3 | 1 | 8 | inactive
CG17571 | 1 | 7 | inactive
CG17571 | 2 | 8 | inactive
CG17571 | 3 | 7 | inactive
CG13046 | 1 | 3 | inactive
MRG15 | 1 | 6 | inactive
CG12848 | 1 | 3 | inactive
CG6441 | 1 | 4 | inactive
Rsph1 | 1 | 10 | inactive
Rsph1 | 2 | 5 | inactive
l(2)dtl | 1 | 13 | inactive
l(2)dtl | 2 | 5 | inactive
bcd + CR14578 | 1 | 5 | inactive
Dop1R2 | 1 | 9 | inactive
Dop1R2 | 2 | 18 | inactive
Dop1R2 | 3 | 10 | inactive
GstD10 | 1 | 3 | inactive
GstD10 | 2 | 4 | inactive
Psf2 | 1 | 6 | inactive
spartin | 1 | 6 | inactive
spartin | 2 | 5 | inactive
